In the supplement of paper PMC11659162 one finds cell viability data, which are given here for nine molecules.

± gives the standard deviation of the averaged measurements. The list shows a part of the results. Single values of this set are uncertain.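 The cells are a human neuroglioma line carrying a green fluorescent autophagy reporter.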

The assay deals with H4 GFP-LC3. Put plainly: cell viability (scaled to control) (fraction of control); higher = more viable cells. To be noted: 6 h.
As to `CN1CCC[C@H]1c1cccnc1` (5 µM), the cell viability was determined as 1.01. For the molecule `O=C(NCCNN1CCCCC1)c1ccc(I)cc1` (5 µM), the cell viability was 0.904.

In the case of `Clc1ccccc1CN1CCc2sccc2C1` (5 µM), the cell viability came to 0.918. As for `CC(C)C[C@H](NC(=O)[C@H](Cc1c[nH]c2ccccc12)NC(=O)[C@@H]1CCCN1C(=O)CNC(=O)[C@@H]1CCC(=O)N1)C(=O)N[C@@H](CCC(=O)O)C(=O)N[C@@H](CCC(=O)O)C(=O)N[C@@H](CCC(=O)O)C(=O)N[C@@H](CCC(=O)O)C(=O)N[C@@H](CCC(=O)O)C(=O)N[C@@H](C)C(=O)N[C@@H](CC1=CC=C(O)CC1)C(=O)NCC(=O)N[C@@H](Cc1c[nH]c2ccccc12)C(=O)O` (5 µM), the figure is 1.19; as for `COC(=O)[C@H]1[C@H]2C[C@H]3c4[nH]c5ccccc5c4CCN3C[C@@H]2CC[C@@H]1O` (5 µM), 0.751.

For `CC[N+](CC)(CC)CCOc1ccc(/C=C/c2ccccc2)cc1` (5 µM), the cell viability was 0.984.

`CC(C)(C)NC[C@H](O)COc1nsnc1N1CCOCC1` (5 µM) came in with a cell viability of 0.893. In turn, `O=C(O)[C@H]1CN[C@H](C(=O)O)C1` (5 µM) displayed a cell viability of 1.04.

Consider `CC(C)C[C@H](NC(=O)[C@H](CCCCN)NC(=O)[C@H](CCCNC(=N)N)NC(=O)[C@H](C)NC(=O)[C@H](CO)NC(=O)[C@H](CCCCN)NC(=O)[C@H](CCCNC(=N)N)NC(=O)[C@H](C)NC(=O)CNC(=O)[C@@H](NC(=O)[C@H](Cc1ccccc1)NC(=O)CNC(=O)CNC(=O)[C@@H](N)Cc1ccccc1)[C@@H](C)O)C(=O)N[C@@H](C)C(=O)N[C@@H](CC(N)=O)C(=O)N[C@@H](CCC(N)=O)C(=O)O` (5 µM), for which the cell viability is 1.11 ± 0.14.
